Experimental data from PubChem BioAssay AID1439 (NMMLSC, 2008).
About 770 (0.35%) of roughly 220,000 compounds were called active. The inconclusive results got no clear call from the source; some entries with a clear call stand among them for comparison. Cut-off read from the data, not from the text of the source: active = binding response below about 49% or above about 150%; inconclusive = no clear call, values can overlap the other calls; inactive = in between.

Protein sequences, listed by entry. Tags and fused reporters are not part of them.
UniProt P09471, whole entry, looked up: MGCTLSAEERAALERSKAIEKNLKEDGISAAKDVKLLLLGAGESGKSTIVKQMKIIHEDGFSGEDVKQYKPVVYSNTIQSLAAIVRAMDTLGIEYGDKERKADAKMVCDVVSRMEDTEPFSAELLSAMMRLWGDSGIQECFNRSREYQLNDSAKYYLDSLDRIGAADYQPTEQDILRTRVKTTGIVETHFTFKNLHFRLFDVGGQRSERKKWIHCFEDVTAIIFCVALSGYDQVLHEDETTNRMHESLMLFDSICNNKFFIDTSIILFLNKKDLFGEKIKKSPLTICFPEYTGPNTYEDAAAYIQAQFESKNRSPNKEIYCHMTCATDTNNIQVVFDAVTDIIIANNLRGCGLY

The compounds below were run against Guanine nucleotide-binding protein G(o) subunit alpha (Homo sapiens) (UniProt P09471) (assay: RGS7-Galphao binding modulators, primary screen, biochemical, multiplexed bead flow cytometry (AID 1439;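 note: fluorescent Galphao held in activated GDP-AlF4 state binding bead-coupled RGS7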)). Details: at 10 µM, actives lie on both sides.

| SMILES | binding response (% of control) |
| --- | --- |
| O=C(COC(=O)/C=C/c1ccc(S(=O)(=O)N2CCOCC2)cc1)NCc1ccccc1 | inconclusive: 95.3% |
| COc1ccccc1CNC(=O)C(NS(=O)(=O)c1cccc2nsnc12)C(C)C (centres undefined) | inconclusive: 99.8% |
| CCOC(=O)c1sc2cc([N+](=O)[O-])cc(SCC(=O)OC)c2c1N | inactive: 97.5% |
| COC(=O)c1sc(-c2ccc(Cl)cc2)cc1NC(=O)/C=C/C(=O)O | inconclusive: 82.7% |
| N/C(=N\OC(=O)c1cnn(-c2ccccc2)c1C(F)(F)F)c1ccc(C(F)(F)F)cc1 | inconclusive: 91.1% |
| O=c1c2c(nc3nc(NCc4cccc5ccccc45)[nH]n13)CCC2 | inactive: 101% |
| Cc1c(Cl)cccc1NC(=O)CNCc1ccccc1F | inactive: 98.6% |
| CCOC(=O)COc1cccc2c(=O)n(CC(N)=O)ccc12 | inconclusive: 139% |
| CN(Cc1cccs1)C(=O)CCCc1c[nH]c2ccccc12 | inconclusive: 107% |
| COc1c(N2CCN(C(=S)Nc3ccccc3F)C(C)C2)c(F)cc2c(=O)c(C(=O)O)cn(C3CC3)c12 (centres undefined) | inconclusive: 103% |
| CCn1nc(NC(=O)Cc2ccc(OC)cc2)c2cc3cccc(C)c3nc21 | inconclusive: 119% |
| C=CCN(c1cccc(C(F)(F)F)c1)S(=O)(=O)c1cccc(C(=O)OCC(=O)Nc2ccccc2)c1 | inactive: 98.7% |
| O=C(Nc1cccc(-c2nc3cccnc3s2)c1)c1ccc(Cl)nc1 | inconclusive: 29.5% |
| Cc1ccc(-c2csc3ncnc(SCC(=O)O)c23)cc1 | inconclusive: 86.4% |
| COC(=O)CCCCCN1C(=O)/C(=C\c2ccncc2)SC1=S | inconclusive: 162% |
| COc1ccc(-n2ncc3c(=O)n(Cc4c(F)cccc4Cl)cnc32)cc1 | inactive: 96.6% |
| Brc1c(-c2ccccc2)nc2n1Cc1ccccc1-2 | inconclusive: 96.3% |
| Cc1ccc([N+](=O)[O-])cc1N/C=C1\CCCCC1=O | inactive: 98.2% |
| COc1nc(N)nc(N2CCOCC2)n1 | inactive: 98.1% |
| O=C(Nc1ccccn1)C(NS(=O)(=O)c1cccc2nsnc12)c1ccccc1 (centres undefined) | inactive: 105% |

| SMILES | binding response (% of control) |
| --- | --- |
| CCOC(=O)NC1=NCC(C)S1 (centres undefined) | inconclusive: 82.7% |
| CCc1cc(C=NC2CCCCC2)c(O)s1 | active: -28.1% |
| N/C(CS(=O)(=O)c1ccccn1)=N\OC(=O)c1ccccc1Cl | inconclusive: 664% |
| COc1ccc(NC(=O)Nc2ccccc2SC)cc1 | inconclusive: 89.9% |
| O=C(CCn1cnnn1)Nc1ccc(Cl)cc1Cl | inconclusive: 90.4% |
| CSc1ccc(Cl)c(C(=O)OCC(=O)N(C)CCC#N)c1 | inconclusive: 100% |
| COc1ccc(S(=O)(=O)N(C)C)cc1NC(=O)COC(=O)c1nn(C)c(=O)c2ccccc12 | inconclusive: 87.8% |
| CC1(C)OC(=O)C(=Cc2ccc[nH]2)C(=O)O1 | inconclusive: -166% |
| CCn1c(O)c(N=NC(=O)Cc2csc(N3CCOCC3)n2)c2ccccc21 | inconclusive: 104% |
| CC(C)=CCN1CCNC(=O)C1CC(=O)NCc1nc(C)c(C)s1 (centres undefined) | inactive: 94.8% |
| COc1cc(NC(=O)CSCC(=O)Nc2cc(OC)cc(OC)c2)cc(OC)c1 | inconclusive: 83.8% |
| O=C(c1cc(F)cc2c1OCOC2)N1CCN(c2ccc(F)cc2)CC1 | inconclusive: 65.9% |
| O=C(NCc1csc(-c2cccs2)n1)Nc1cccc(Cl)c1 | inconclusive: 90.3% |
| O=C(Nc1cc(=O)[nH]c2nc(-c3ccccc3)nn12)c1ccccc1Cl | inconclusive: 83.8% |
| O=C(COC(=O)c1ccc(O)cc1O)NC1CCS(=O)(=O)C1 (centres undefined) | inconclusive: 79.9% |
| CC1Cc2ccccc2N1C(=O)CSc1nnnn1C (centres undefined) | inactive: 102% |
| Clc1ccc(-c2cn(-c3ccc(Cl)cc3)c3[n+]2CCCCC3)cc1 | inconclusive: 72.1% |
| Cn1c(N)c(C(=O)COC(=O)CNS(=O)(=O)c2cccc(Cl)c2)c(=O)n(C)c1=O | inactive: 97.2% |
| O=S(=O)(c1ccc(NC(=S)NCc2ccco2)cc1)N1CCCCC1 | inconclusive: 131% |
| O=C(N/N=C/c1cc([N+](=O)[O-])ccc1O)C1CC1 | inconclusive: -123% |

| SMILES | binding response (% of control) |
| --- | --- |
| COc1ccc2nc(N(CCN(C)C)C(=O)/C=C/c3cccs3)sc2c1 | inconclusive: 112% |
| Cc1ccnc(SCc2cn3c(C)cc(C)nc3n2)n1 | inconclusive: 93.8% |
| Fc1ccc(COc2cccc3cccnc23)cc1 | inconclusive: 107% |
| CCOc1cc(C(=O)N2CCc3cc(OC)c(OC)cc3C2)ccc1OC(F)F | active: 159% [activator] |
| CC(C)(C)NC(=O)/C(=C/c1cccnc1)NC(=O)c1ccco1 | inconclusive: 121% |
| CN(C)c1ccc(N=Nc2ccccc2C(=O)OCC(=O)N(C)c2ccccc2)cc1 | inactive: 102% |
| O=C(Cc1ccc(Cl)cc1Cl)NCC1(N2CCOCC2)CCCCC1 | inactive: 98.4% |
| O=S(=O)(CCc1ccncc1)C1Cc2cccc3cccc1c23 (centres undefined) | inconclusive: 60.9% |
| Cc1ccc(NC(=S)N(CCCN2CCN(C)CC2)Cc2cccs2)cc1C | inconclusive: 109% |
| NNC(=O)c1csc(Cc2c(Cl)sc3ccc(Cl)cc23)n1 | inconclusive: 84.3% |
| O=C(CCN1C(=O)CSC1=O)Nc1ccccc1 | inactive: 99.7% |
| COC(=O)CSc1nnc(CNC(=O)c2ccccc2F)n1-c1ccccc1 | inconclusive: 112% |
| Cc1cc(C)c(C(N)=O)c(Cl)n1 | inconclusive: 93.3% |
| Cc1ccc(-c2nc(-c3nccc4ccccc34)oc2-c2ccccc2)cc1 | inconclusive: 105% |
| COc1ccc(OCC(=O)O/N=C(\N)Cc2ccc(Cl)cc2)cc1 | inactive: 108% |
| CCN(CC)CCNCC(=O)Nc1ccc(Oc2ccccc2)cc1 | inconclusive: 94.9% |
| COC(=O)CC1(C(=O)OC)Oc2ccc(Br)cc2C(=O)N1c1ccc(Br)cc1Cl (centres undefined) | inconclusive: 108% |
| Cc1ccc(C[n+]2cc(-c3ccc(Cl)cc3)n3c2CCC3)cc1 | inconclusive: 107% |
| O=Cc1cccn1-c1nccc(-c2ccco2)n1 | inconclusive: 94.8% |

Part of the list above in another layout:
COc1ccc(-n2ncc3c(=O)n(Cc4c(F)cccc4Cl)cnc32)cc1
  binding response (% of control): inactive: 96.6%
Brc1c(-c2ccccc2)nc2n1Cc1ccccc1-2
  binding response (% of control): inconclusive: 96.3%
